Data taken from publication PMC11730739.
For at least one entry, the source does not settle the construct or the ends of the probe. A weaker result is weaker than the reference pair of the same experiment.

By UniProt entry, the sequences of proteins in these tests, tags left out. Where a name states a change or a piece, a line headed by the entry shows the natural chain unless it says otherwise.
UniProt P16220: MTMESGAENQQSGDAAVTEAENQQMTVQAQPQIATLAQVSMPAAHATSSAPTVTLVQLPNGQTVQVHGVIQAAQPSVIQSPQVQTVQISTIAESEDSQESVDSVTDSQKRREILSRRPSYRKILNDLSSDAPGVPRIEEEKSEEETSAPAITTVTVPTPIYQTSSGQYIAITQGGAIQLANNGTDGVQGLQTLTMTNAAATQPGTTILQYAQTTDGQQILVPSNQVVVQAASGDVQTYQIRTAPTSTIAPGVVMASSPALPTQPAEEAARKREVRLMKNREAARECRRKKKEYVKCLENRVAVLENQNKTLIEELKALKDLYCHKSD

Target: CREB (recombinant CREB, full-length) (human) (UniProt P16220)
Experiment: EMSA
Details: 25 mM Tris pH 7.5, 200 mM NaCl, 5 mM MgCl2, 1 mM DTT, 5% glycerol, 0.05% Triton X-100, room temperature, 20 min, 4% native gel in 0.5x TBE, recombinant protein

AGAGATTGCCTGACGTCAGAGAGCTAG (double strand) [Cy3-CRE probe]
binding result (no MMPP, 2 nM probe, 2 ug CREB): binds
binding result (plus MMPP (melanin-like nanoparticles), dose-dependent reduction of binding): binds more weakly
